Laboratory results taken from patent publication US11883387B2, “PqsR inverse agonists” (HELMHOLTZ-ZENTRUM FÜR INFEKTIONSFORSCHUNG GMBH, priority 2018, dated 2024).
Some of these results come from one statement about several compounds together.

Test: Kinetic Turbidimetric Aqueous Solubility at room temperature for 5 min
Format: physicochemical
Conditions: PBS buffer, 2% DMSO
Protocol: Kinetic Turbidimetric Aqueous Solubility at room temperature for 5 min. Test compound was diluted in PBS buffer to give a range of concentrations (typically 0.4, 2, 4, 20, 40, 100, and 200 μM, final DMSO concentration 2%) and incubated at room temperature for 5 min. Absorbance was measured at a wavelength of 620 nm and the solubility was estimated from the concentration of test compound that produces an increase in absorbance above the vehicle control (i.e., […]). Data was analyzed by fitting a four parameter sigmoidal function to the measured and normalized absorbances and AUC calculation providing access to Log S (decadic logarithm of the solubility).

Row | Compound | Kinetic Turbidimetric Aqueous Solubility
1 | Nc1cc(SCc2nc3cc(Oc4cccc(F)c4)ccc3[nH]2)nc(C(F)(F)F)n1 [Compound 171, 6-(((5-(3-fluorophenoxy)-1H-benzo[d]imidazol-2-yl)methyl)thio)-2-(trifluoromethyl)pyrimidin-4-amine] | above 10 μM
2 | Nc1cc(SCc2nc3cc(Oc4cccc(F)c4)ccc3[nH]2)nc(C(F)(F)F)n1 [Compound 129, 6-(((5-(3-Fluorophenoxy)-1H-benzo[d]imidazol-2-yl)methyl)thio)-2-(trifluoromethyl)pyrimidin-4-amine] | above 25 μM
